{
  "sequences": {"note": "Sequences of proteins named here, by UniProt entry; tags and fusion partners are left off.", "UniProt P93830": "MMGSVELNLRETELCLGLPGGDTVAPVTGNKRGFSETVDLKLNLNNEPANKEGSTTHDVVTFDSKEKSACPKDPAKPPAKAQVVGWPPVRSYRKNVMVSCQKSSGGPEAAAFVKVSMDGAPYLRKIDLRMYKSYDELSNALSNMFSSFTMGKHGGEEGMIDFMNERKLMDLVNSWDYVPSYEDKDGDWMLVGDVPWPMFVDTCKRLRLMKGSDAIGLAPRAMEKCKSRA"},
  "source": "paper doi:10.1101/2022.10.07.511298",
  "biological_target": "T1, TIR1-Myc (Arabidopsis thaliana) (UniProt Q570C0)",
  "T1 sequence": "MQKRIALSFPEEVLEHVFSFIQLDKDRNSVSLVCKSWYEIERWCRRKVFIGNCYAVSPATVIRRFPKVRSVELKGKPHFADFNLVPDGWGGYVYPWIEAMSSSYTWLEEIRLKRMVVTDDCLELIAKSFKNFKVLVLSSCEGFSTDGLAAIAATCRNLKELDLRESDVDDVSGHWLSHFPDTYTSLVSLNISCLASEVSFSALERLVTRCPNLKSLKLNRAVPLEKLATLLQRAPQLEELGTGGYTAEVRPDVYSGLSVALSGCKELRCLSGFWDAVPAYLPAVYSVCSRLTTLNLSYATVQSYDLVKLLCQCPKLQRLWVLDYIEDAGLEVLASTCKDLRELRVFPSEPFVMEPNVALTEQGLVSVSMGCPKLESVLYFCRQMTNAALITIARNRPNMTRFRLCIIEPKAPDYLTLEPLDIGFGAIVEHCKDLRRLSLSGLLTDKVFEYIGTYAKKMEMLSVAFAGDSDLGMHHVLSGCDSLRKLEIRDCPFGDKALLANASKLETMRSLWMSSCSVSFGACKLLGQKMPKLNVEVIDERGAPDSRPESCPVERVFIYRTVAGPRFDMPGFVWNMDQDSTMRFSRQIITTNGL",
  "test": "co-IP",
  "note": "These are yes or no findings as the source states them, for the method shown. Binding seen in cells or lysates may run through a third protein. Some binding calls cover weakened binding; strength is not graded here. Tags and fused reporters may be left off the sequences shown.",
  "data": [
    {"substance": "His-IAA17 recombinant protein (from UniProt P93830 1-229)", "values": [
      {"measurement": "binding", "value": "binds"}
    ]}
  ]
}
